Binding data for 3 substances are collected here from paper PMC11124926.

Results are given in words; binding and its absence hold for the method and conditions named. A result given as binding can be weak or reduced; the word gives no strength. Sequences can lack the tags named with a protein. For part of these data: Binding seen in cells or lysates may run through a third protein.

The target in experiment [1] is T1, CIPK31 in pGBT9 (DNA-binding domain fusion), yeast two-hybrid construct (rice) (UniProt Q6X4A2).
T1 sequence: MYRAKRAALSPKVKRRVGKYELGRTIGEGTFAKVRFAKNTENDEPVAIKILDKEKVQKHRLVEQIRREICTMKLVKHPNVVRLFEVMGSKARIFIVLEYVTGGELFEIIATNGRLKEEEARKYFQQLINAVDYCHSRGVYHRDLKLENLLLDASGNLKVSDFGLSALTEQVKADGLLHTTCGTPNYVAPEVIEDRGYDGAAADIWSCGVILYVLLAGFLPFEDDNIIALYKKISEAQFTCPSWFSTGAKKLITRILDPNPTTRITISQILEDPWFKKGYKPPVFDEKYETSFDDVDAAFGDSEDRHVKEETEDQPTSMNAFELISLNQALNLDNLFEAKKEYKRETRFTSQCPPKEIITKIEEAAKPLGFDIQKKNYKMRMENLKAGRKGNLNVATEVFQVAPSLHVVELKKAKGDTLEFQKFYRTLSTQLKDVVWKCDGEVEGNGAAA
The experiment in a line: two-hybrid; Match Maker yeast two-hybrid system; CIPK31 in pGBT9 (BD), SLR1 and VOZ2 in pGAD424 (AD); co-transformed into yeast strain Y2HGold.

The next experiment has as its target T2, CIPK31-GFP (rice) (UniProt Q6X4A2).
T2 sequence: T1 sequence
Kind of experiment: co-IP; CIPK31-GFP + VOZ2-Myc coexpressed in tobacco leaves; total protein immunoprecipitated with an anti-GFP antibody; blots with anti-GFP and anti-Myc.

The next experiment has as its target T3, CIPK31-nYFP (rice) (UniProt Q6X4A2).
T3 sequence: T1 sequence
The experiment in a line: split reporter; BiFC in tobacco leaves; vectors pXNGW and pXCGW, Agrobacterium GV3101; YFP reconstruction imaged by confocal microscopy 36-48 h after transformation; H2B-RFP as nuclear marker.

For the substance “VOZ2 in pGAD424 (activation domain fusion), yeast two-hybrid construct (rice)”, in experiment [1], the binding entry is “binds”.
Turning to VOZ2-Myc (rice), in the experiment with CIPK31-GFP (rice), the binding entry was “binds”.
For VOZ2-cCFP (rice), the binding result with CIPK31-nYFP (rice) is “binds”.
